{"source": "patent US20060228333A1", "about": "“Methods for control of tumors and chronic infections by modulating immunologically informed carriers homing to tolerogenic organs or tissues” (priority 2004, published 2006)", "tested_on": "thymus (homing of Brown Norway rat PBMCs)", "assay": "Thymic homing of injected donor PBMCs after drug treatment (homed cell counting in sliced thymus)", "format": "in vivo, Lewis rats", "description": "Inbred male Lewis rats (LW, RT1l) were injected intramuscularly with rapamycine (RAPA; 0.1 mg/kg/d), tacrolimus (TAC; 0.2 mg/kg/d), cyclosporine A (CsA; 10 mg/kg), PGE 1 (32 ug/kg or 10 ug/kg) or a control.\nOne hour after the above treatments, 1.2-1.6×10^7 peripheral blood mononuclear cells (PBMCs) were obtained from Brown Norway rats (BN, RT1n). The cells were stained with IUBD and then injected intraperitoneally. 24 hours after cellular inoculation, the animals were sacrificed. A thymectomy was performed, the thymus was sliced and homed cell counting was performed. Homed cells may be counted by any method known to one of skill in the art. In this case, as the cells were stained before inoculation, the homed cells in the thymus were identified by the staining. The results of the cell counting are presented in Tables 1 and 2 for each treatment group: […]", "note": "At least one structure is not confirmed: it was looked up by name or label, or the drawing left a doubt.", "data": [{"compound": "CO[C@H]1C[C@@H]2CC[C@@H](C)[C@@](O)(O2)C(=O)C(=O)N2CCCC[C@H]2C(=O)O[C@H]([C@H](C)C[C@@H]2CC[C@@H](O)[C@H](OC)C2)CC(=O)[C@H](C)/C=C(\\C)[C@@H](O)[C@@H](OC)C(=O)[C@H](C)C[C@H](C)/C=C/C=C/C=C/1C", "note": "[RAPA, rapamycine]", "values": [{"measurement": "Thymic homing compared with control and other treated groups", "setting": "doses as in Table 1", "result": "much less homing than FK or CsA"}, {"measurement": "Activation of the epithelial cells of the thymus", "setting": "stated in discussion of Example 1", "result": "does not activate"}]}]}
